No constants are given. Whether binding was seen depends on the method and setting. In cells and extracts the contact can be indirect. Here binding means that the protein was enriched with, or labelled near, the bait; the list need not be complete. For some assays here: Where a sequence is shown, tags or fusion partners need not be part of it.
T1: affinity-tagged G9a (human), Q96KQ7
T1 chain: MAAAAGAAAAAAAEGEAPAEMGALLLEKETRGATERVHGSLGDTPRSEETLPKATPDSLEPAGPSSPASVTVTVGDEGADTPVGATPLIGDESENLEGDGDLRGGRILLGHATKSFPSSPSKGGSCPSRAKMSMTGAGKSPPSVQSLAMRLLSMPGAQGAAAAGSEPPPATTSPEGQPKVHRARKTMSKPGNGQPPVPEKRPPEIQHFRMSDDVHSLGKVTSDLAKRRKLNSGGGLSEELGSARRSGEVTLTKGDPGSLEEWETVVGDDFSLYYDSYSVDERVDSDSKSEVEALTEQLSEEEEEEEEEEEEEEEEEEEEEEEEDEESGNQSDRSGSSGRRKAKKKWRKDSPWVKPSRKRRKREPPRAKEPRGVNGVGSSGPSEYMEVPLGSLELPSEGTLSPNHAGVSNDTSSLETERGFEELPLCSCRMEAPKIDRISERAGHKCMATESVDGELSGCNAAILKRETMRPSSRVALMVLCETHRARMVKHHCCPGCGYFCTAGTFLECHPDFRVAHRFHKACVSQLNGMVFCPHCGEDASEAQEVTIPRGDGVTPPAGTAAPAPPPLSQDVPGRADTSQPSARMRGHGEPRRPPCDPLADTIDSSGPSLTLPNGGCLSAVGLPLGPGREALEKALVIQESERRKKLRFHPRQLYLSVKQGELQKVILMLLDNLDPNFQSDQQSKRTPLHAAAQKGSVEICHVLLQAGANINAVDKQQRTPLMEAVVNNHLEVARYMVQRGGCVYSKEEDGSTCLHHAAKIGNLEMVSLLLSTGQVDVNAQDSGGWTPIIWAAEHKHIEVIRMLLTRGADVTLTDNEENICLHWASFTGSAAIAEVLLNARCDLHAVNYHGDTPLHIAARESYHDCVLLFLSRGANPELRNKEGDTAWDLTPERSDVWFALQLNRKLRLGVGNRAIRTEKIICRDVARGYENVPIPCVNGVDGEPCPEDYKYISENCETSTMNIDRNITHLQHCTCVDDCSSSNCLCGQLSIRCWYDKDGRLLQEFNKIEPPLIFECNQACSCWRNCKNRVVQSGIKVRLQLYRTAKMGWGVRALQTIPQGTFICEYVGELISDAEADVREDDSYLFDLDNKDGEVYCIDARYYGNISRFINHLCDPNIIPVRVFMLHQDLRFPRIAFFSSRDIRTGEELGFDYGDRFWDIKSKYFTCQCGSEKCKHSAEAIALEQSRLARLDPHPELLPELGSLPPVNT


What was measured:
[1] = biological target: T1, affinity-tagged G9a (human), Q96KQ7; test: affinity purification with mass spectrometry; stable lentivirus-based expression of epitope-tagged bait in HEK293; replicate two-step enrichment from cell lysates; conditions: remark: other sources report otherwise
[2] = biological target: affinity-tagged G9a (human) (UniProt Q96KQ7); test: as above

binding [1]	binding [2]	Binder
binds	–	GLP, Q9H9B1 1-1298 (enzyme) MAAADAEAVPARGEPQQDCCVKTELLGEETPMAADEGSAEKQAGEAHMAADGETNGSCENSDASSHANAAKHTQDSARVNPQDGTNTLTRIAENGVSERDSEAAKQNHVTADDFVQTSVIGSNGYILNKPALQAQPLRTTSTLASSLPGHAAKTLPGGAGKGRTPSAFPQTPAAPPATLGEGSADTEDRKLPAPGADVKVHRARKTMPKSVVGLHAASKDPREVREARDHKEPKEEINKNISDFGRQQLLPPFPSLHQSLPQNQCYMATTKSQTACLPFVLAAAVSRKKKRRMGTYSLVPKKKTKVLKQRTVIEMFKSITHSTVGSKGEKDLGASSLHVNGESLEMDSDEDDSEELEEDDGHGAEQAAAFPTEDSRTSKESMSEADRAQKMDGESEEEQESVDTGEEEEGGDESDLSSESSIKKKFLKRKGKTDSPWIKPARKRRRRSRKKPSGALGSESYKSSAGSAEQTAPGDSTGYMEVSLDSLDLRVKGILSSQAEGLANGPDVLETDGLQEVPLCSCRMETPKSREITTLANNQCMATESVDHELGRCTNSVVKYELMRPSNKAPLLVLCEDHRGRMVKHQCCPGCGYFCTAGNFMECQPESSISHRFHKDCASRVNNASYCPHCGEESSKAKEVTIAKADTTSTVTPVPGQEKGSALEGRADTTTGSAAGPPLSEDDKLQGAASHVPEGFDPTGPAGLGRPTPGLSQGPGKETLESALIALDSEKPKKLRFHPKQLYFSARQGELQKVLLMLVDGIDPNFKMEHQNKRSPLHAAAEAGHVDICHMLVQAGANIDTCSEDQRTPLMEAAENNHLEAVKYLIKAGALVDPKDAEGSTCLHLAAKKGHYEVVQYLLSNGQMDVNCQDDGGWTPMIWATEYKHVDLVKLLLSKGSDINIRDNEENICLHWAAFSGCVDIAEILLAAKCDLHAVNIHGDSPLHIAARENRYDCVVLFLSRDSDVTLKNKEGETPLQCASLNSQVWSALQMSKALQDSAPDRPSPVERIVSRDIARGYERIPIPCVNAVDSEPCPSNYKYVSQNCVTSPMNIDRNITHLQYCVCIDDCSSSNCMCGQLSMRCWYDKDGRLLPEFNMAEPPLIFECNHACSCWRNCRNRVVQNGLRARLQLYRTRDMGWGVRSLQDIPPGTFVCEYVGELISDSEADVREEDSYLFDLDNKDGEVYCIDARFYGNVSRFINHHCEPNLVPVRVFMAHQDLRFPRIAFFSTRLIEAGEQLGFDYGERFWDIKGKLFSCRCGSPKCRHSSAALAQRQASAAQEAQEDGLPDTSSAAAADPL
–	binds	ZNF644 (endogenous) (protein, UniProt Q9H582 1-1327) MRSFLQQDVNKTKSRLNVLNGLANNMDDLKINTDITGAKEELLDDNNFISDKESGVHKPKDCQTSFQKNNTLTLPEELSKDKSENALSGGQSSLFIHAGAPTVSSENFILPKGAAVNGPVSHSSLTKTSNMNKGSVSLTTGQPVDQPTTESCSTLKVAADLQLSTPQKASQHQVLFLLSDVAHAKNPTHSNKKLPTSASVGCDIQNSVGSNIKSDGTLINQVEVGEDGEDLLVKDDCVNTVTGISSGTDGFRSENDTNWDPQKEFIQFLMTNEETVDKAPPHSKIGLEKKRKRKMDVSKITRYTEDCFSDSNCVPNKSKMQEVDFLEQNEELQAVDSQKYALSKVKPESTDEDLESVDAFQHLIYNPDKCGEESSPVHTSTFLSNTLKKKCEESDSESPATFSTEEPSFYPCTKCNVNFREKKHLHRHMMYHLDGNSHFRHLNVPRPYACRECGRTFRDRNSLLKHMIIHQERRQKLMEEIRELKELQDEGRSARLQCPQCVFGTNCPKTFVQHAKTHEKDKRYYCCEECNFMAVTENELECHRGIAHGAVVKCPMVTSDIAQRKTQKKTFMKDSVVGSSKKSATYICKMCPFTTSAKSVLKKHTEYLHSSSCVDSFGSPLGLDKRKNDILEEPVDSDSTKTLTKQQSTTFPKNSALKQDVKRTFGSTSQSSSFSKIHKRPHRIQKARKSIAQSGVNMCNQNSSPHKNVTIKSSVDQKPKYFHQAAKEKSNAKANSHYLYRHKYENYRMIKKSGESYPVHFKKEEASSLNSLHLFSSSSNSHNNFISDPHKPDAKRPESFKDHRRVAVKRVIKESKKESSVGGEDLDSYPDFLHKMTVVVLQKLNSAEKKDSYETEDESSWDNVELGDYTTQAIEDETYSDINQEHVNLFPLFKSKVEGQEPGENATLSYDQNDGFYFEYYEDTGSNNFLHEIHDPQHLETADASLSKHSSVFHWTDLSLEKKSCPYCPATFETGVGLSNHVRGHLHRAGLSYEARHVVSPEQIATSDKMQHFKRTGTGTPVKRVRKAIEKSETTSEHTCQLCGGWFDTKIGLSNHVRGHLKRLGKTKWDAHKSPICVLNEMMQNEEKYEKILKALNSRRIIPRPFVAQKLASSDDFISQNVIPLEAYRNGLKTEALSVSASEEEGLNFLNEYDETKPELPSGKKNQSLTLIELLKNKRMGEERNSAISPQKIHNQTARKRFVQKCVLPLNEDSPLMYQPQKMDLTMHSALDCKQKKSRSRSGSKKKMLTLPHGADEVYILRCRFCGLVFRGPLSVQEDWIKHLQRHIVNANLPRTGAGMVEVTSLLKKPASITETSFSLLMAEAAS

— PMC5031922
